Reference: US20220280462A1, “SOLID ORAL DOSAGE FORM COMPRISING NAPROXEN AND VITAMIN B1” (DSM IP ASSETS B.V., priority 2019, published 2022)

Test: Bulk density, tapped density and Carr Index (flowability) of powders and granules
Format: physicochemical
Method: The Carr Index is calculated by the formula 100×(1−BD/TD) and is used as an indication of the flowability.

COc1ccc2cc([C@H](C)C(=O)O)ccc2c1 [Naproxen Sodium, naproxen sodium]
BD (bulk density): 0.30 g/mL | TD (tapped density): 0.55 g/mL | Carr Index (100×(1−BD/TD), greater than 25 indicates poor flowability): 45
